Experimental data taken from patent US20040138241A1, “Novel use of arylethenesulfonamide derivative” (priority 2001, published 2004).
At least one structure is not confirmed: it was looked up by name or label, or the drawing left a doubt.

System: isolated rabbit prostate, urethra and bladder base preparations
Test: Concentration-response of agonists in isolated rabbit lower urinary tract preparations
Assay type: biochemical
Details: cumulative addition

With CC(=O)OCC[N+](C)(C)C [Acetylcholine, acetylcholine] the “contraction of isolated preparations (in words)” value was “did not reach the maximum contraction even at 1,000 μM”.
